Laboratory results taken from patent US20040259198A1, “Purified and isolated mat II beta subunit nucleic acids and polypeptides and therapeutic and screening methods using same” (priority 1999, published 2004).
No constants are given. Whether binding was seen depends on the method and setting. For some assays here: Binding seen in cells or lysates may run through a third protein. Some results given as binding are weak or reduced against the parent protein; the word gives no strength. Tags and fused reporters may be left off the sequences shown.

Protein sequences, listed by entry. Tags and fused reporters are not part of them.
UniProt P31153: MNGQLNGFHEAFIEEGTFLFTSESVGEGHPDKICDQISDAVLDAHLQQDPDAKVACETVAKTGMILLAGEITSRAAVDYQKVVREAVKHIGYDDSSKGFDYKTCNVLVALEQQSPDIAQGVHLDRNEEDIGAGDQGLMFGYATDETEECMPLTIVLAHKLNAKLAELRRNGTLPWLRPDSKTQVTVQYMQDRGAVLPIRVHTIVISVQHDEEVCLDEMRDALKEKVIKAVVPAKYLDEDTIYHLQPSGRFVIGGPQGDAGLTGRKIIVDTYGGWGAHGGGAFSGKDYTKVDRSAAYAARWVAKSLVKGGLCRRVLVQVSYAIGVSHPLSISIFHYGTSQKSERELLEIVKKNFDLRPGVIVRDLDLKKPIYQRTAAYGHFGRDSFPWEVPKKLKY

Assays:
[1] = target: recombinant human MAT II α2 subunit expressed in E. coli from the pQE-30 vector (human) (UniProt P31153); test: MAT kinetic assay
[2] = target: T1, endogenous E. coli MAT α subunit (E. coli) (UniProt P0A817); test: Ni-NTA agarose co-purification, Western blot
T1 sequence: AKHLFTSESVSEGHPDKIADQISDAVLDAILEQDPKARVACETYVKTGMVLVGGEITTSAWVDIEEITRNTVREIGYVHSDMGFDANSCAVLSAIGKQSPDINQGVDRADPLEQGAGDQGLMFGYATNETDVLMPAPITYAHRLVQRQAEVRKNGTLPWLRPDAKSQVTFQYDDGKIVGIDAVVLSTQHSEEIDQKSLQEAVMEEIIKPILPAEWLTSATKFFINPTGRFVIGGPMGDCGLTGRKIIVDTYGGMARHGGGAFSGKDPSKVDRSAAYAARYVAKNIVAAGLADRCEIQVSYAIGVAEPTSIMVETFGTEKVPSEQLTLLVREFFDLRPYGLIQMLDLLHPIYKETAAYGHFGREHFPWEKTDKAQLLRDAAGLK

[3] = target: T1, endogenous E. coli MAT α subunit (E. coli); test: Ni-agarose co-purification, Western blot
[4] = target: T1, endogenous E. coli MAT α subunit (E. coli); test: co-purification / MAT kinetic assay
[5] = target: T1, endogenous E. coli MAT α subunit (E. coli); test: Ni-NTA agarose purification under native conditions

Measured: binding

B1: recombinant human MAT II β subunit protein with N-terminal poly-His tag, expressed in E. coli from pQE-30 (Clone 5) (protein, not shown: small tags and cut ends)
chain: MVGREKEISIHFVPGSCRLVEEEVNIPNRRVLVTGATGLLGRAVHKEFQQNNWHAVGCGFRRARPKFEQVNLLDSNAVHHIIHDFQPHVIVHCAAERRPDVVENQPDAASQLNVDASGNLAKEAAAVGAFLIYISSDYVFDGTNPPYREEDIPAPLNLYGKTKLDGEKAVLENNLGAAVLRIPILYGEVEKLEESAVTVMFDKVQFSNKSANMDHWQQRFPTHVKDVATVCRQLAEKRMLDPSIKGTFHWSGNEQMTKYEMACAIADAFNLPSSHLRPITDSPVLGAQRPRNAQLDCSKLETLGIGQRTPFRIGIKESLWPFLIDKRWRQTVFH
binds: all assays above
